Test results from US10945931B2, “Shaping keratin fibres using dialdehyde compounds” (The Procter & Gamble Company, priority 2015, dated 2021).

Experiment: Assessment of sugars using the Benedict's Test
Format: physicochemical
Text: In at least one embodiment, the crosslinking composition comprises a reducing sugar and a cosmetically acceptable carrier. As used herein, the expression “reducing sugar” means any sugar that either has an aldehyde group or is capable of forming an aldehyde group in solution through isomerism, and that gives a positive result in the Benedict's test. An aldehyde group is —C(═O)H. The Benedict's test involves employment of the Benedict's solution. The Benedict's solution is available from Aldrich as ‘Benedict's Reagent’, which comprises sodium carbonate, copper sulphate pentahydrate and 2,5-difluorotoluene. In the Benedict's test, 1 mL of Benedict's solution is added to a 20 mL of 5% aqueous solution comprising a dissolved test compound. Benedict's solution contains blue copper(II) ions (Cu^2+). The solution is heated to 80° C. for 15 min and the resulting colour change is noted. The cupric ion of the Benedict's solution is reduced to cuprous ion by the aldehyde of the sugar. A positive test is confirmed with a change in colour as cupric ions (Cu^2+) are converted to cuprous ions i.e. reduced to copper(I) ions (Cu^+). These are precipitated as red copper(I) oxide which is insoluble in water. The test is also designed for longer heating time and higher temperature to note any colour change. The solution may range in colour (with increasing amounts of reducing sugar) from green, through yellow and orange, to red. […] The wavelength will change with the colour. In general, the Benedict's reagent is used as a test for the presence of reducing sugars. This includes all monosaccharides and many disaccharides, including lactose and maltose. Even more generally, Benedict's test will detect the presence of aldehydes, and alpha-hydroxy-ketones, including those that occur in certain ketoses. Thus, although fructose, a ketose, is not strictly a reducing sugar, it is an alpha-hydroxy-ketone, it gives a positive test because it is converted to the aldoses glucose and mannose by the base in the reagent. The copper sulphate in Benedict's solution reacts with reducing sugars. One litre of Benedict's reagent can be prepared from 100 g of anhydrous sodium carbonate, 173 g of sodium citrate and 17.3 g of copper(II) sulfate pentahydrate. Benedict's Reagent provides a quantitative test for reducing sugars along with qualitative test. The colour of the obtained precipitate gives an idea about the quantity of sugar present in the solution. A greenish precipitate indicates about 0.5% concentration; yellow precipitate indicates 1% concentration; orange indicates 1.5% and red indicates 2% or higher concentration. A positive result in the Benedict's test can be recognised for a compound by a 5% (weight/weight) solution of compound in water as a red colouring. The aldehyde group of the sugar allows the sugar to act as a reducing agent, for example in the Benedict's test.

[1] = 80° C., 15 min, 1 mL Benedict's solution added to 20 mL of 5% aqueous solution of test compound

Row | Structure (SMILES) | Benedict's Test result [1] | Benedict's Test result (100° C., 40 min)
1 | O=C[C@@H](O)[C@H](O)[C@H](O)CO [Arabinose] | Positive | Positive
2 | O=C(CO)[C@@H](O)[C@H](O)[C@H](O)CO [Fructose] | Positive | Positive
3 | CO[C@H]1OC(CO)[C@H](O)[C@@H](O)[C@@H]1O (stereo partly drawn) [Methyl glucoside] | Negative | Positive
4 | O=C[C@H](O)[C@H](O)[C@H](O)CO [Ribose] | Positive | Positive
5 | OC[C@H]1O[C@@](CO)(O[C@H]2O[C@H](CO)[C@@H](O)[C@H](O)[C@H]2O)[C@@H](O)[C@@H]1O [Sucrose] | Negative | Positive
6 | O=C[C@H](O)[C@@H](O)[C@H](O)CO [Xylose] | Positive | Positive
